## Screening data, single-dose tests

The filed quantity is “Percent Effect” (%).
How 0% and 100% were set is not recorded. Most values in the screen are low, and negative values occur.
Compounds were drawn at random from those tested, without regard to their results.
Two or more numbers in one place are separate tests of the same structure; such repeats can differ widely.

A: 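Assay of Toxoplasma gondii numbers, read through their beta-galactosidase reporter with a colour substrate. Tested at 10 µM. The record gives no direction; the compounds picked for IC50 retests had high values, so higher reads as fewer parasites. Size under these conditions: about 67,000 compounds, about 260 of them at 50% or above in at least one test.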
B: 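Cell assay of Leishmania donovani living inside macrophages; the read-out is not stated. Concentration: 30 µM. The record gives no direction; compounds that gave an IC50 in retests scored well above the rest, so higher reads as stronger inhibition. About 69,000 compounds were tested under these conditions; 1.5% (about 1,000) showed 50% or more at least once.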

SMILES,A,B
CNC(=O)c1nc(COc2ccc3c(c2)OCO3)no1,-2.965,42.75
CC(C)(C)NC(=O)C1CSCN1S(=O)(=O)c1cccc(F)c1 (stereo unspecified),1.861,12.42
O=C(O)C(F)(F)F.O=C(O)C(F)(F)F.[H][C@@]12OCCC[C@]1([H])N(C(=O)c1cccc(C)n1)C[C@H]2OCc1ccncc1,-3.452,0.6754
COc1ccccc1C(O)Cn1cc(C(=O)NCc2ccco2)nn1 (stereo unspecified),10.94,-41.04 & 0.2866
O=c1c2cc3c(cc2nnn1Cc1ccccc1)OCCO3,-19.22,-15.11
CCOc1cc(C)nc(N2CCN(C(=O)c3csnn3)CC2)n1,-14.52,27.42
CSCCc1ccc(NC(=O)NC(C)Cn2cncn2)cc1 (stereo unspecified),-1.955,7.577
COCCN(C)C[C@@H]1CN(C(=O)c2sc3ccccc3c2C)C[C@@H]1CO,-4.882,35.14
COc1c(CNC(c2cccc(F)c2)c2nccn2C)c(C)nn1C (stereo unspecified),14.78,10.99
N#Cc1ccc(OC2CCN(C(=O)c3ccc(Br)o3)CC2)nc1,-17.24,-1.956
COc1ccc(CCC(=O)Nc2ccc3ncn(C)c(=O)c3c2)cc1,16.96,-0.3456
O=C(c1ccc2c(c1)OCO2)N1CCCC(Nc2ccc(F)cc2)C1 (stereo unspecified),-4.623,-1.122
Cc1cccc(C)c1OCC(O)CNCc1c(C)nn(C)c1N(C)C (stereo unspecified),8.779,10.09
CN(Cc1cccc(-n2cccn2)c1)C(=O)c1cccc(N(C)C)c1,3.254,-22.88
O=C(NCC1CC1)C1CN(C(=O)NC2CCCC2)Cc2cncn2C1 (stereo unspecified),-24.97,17.84
N#Cc1ccc(C(=O)N2CCn3c(Cn4cccn4)cnc3C2)cc1.O=C(O)C(F)(F)F,0.8547,-19.67
CC(Cn1ccnc1)NC(=O)N(C)Cc1ccco1 (stereo unspecified),4.414,17.63
CO[C@H]1COCCN(C(=O)c2ccc(C#N)cc2)C1,-5.776,-15.85
Cc1cc(NCc2ccco2)nc2[nH]nc(N)c12,-13.19,9.62
CN(Cc1cnn(C)c1)C(=O)NCc1ccc2c(c1)OCCO2,-14.03,20.15
c1cncc(CN2CCCC3(COCCN(c4cncnc4)C3)C2)c1 (stereo unspecified),-27.55,-24.36
CC(NC(=O)N(C)Cc1ccc(Cl)s1)c1ccccn1 (stereo unspecified),-0.7312,22.68
[H][C@@]12C[C@H](C(=O)N(C)C)[C@@]([H])(CN(S(=O)(=O)Cc3ccccc3)C1)O2,3.827,11.97
CC(=O)N1CCCC(C(=O)N2CCC(=Cc3cccc(F)c3)CC2)C1 (stereo unspecified),-12.3,6.703
Cn1nc(CNC(=O)CN2C(=O)CCC2=O)cc1C1CC1,22.01,22.8 & 9.778
CC(Nc1nc2c(cnn2C)c(=O)[nH]1)c1ccc2c(c1)CCCC2 (stereo unspecified),9.053,11.74
O=C(C1CC1)N1CC[C@H](c2nc3ccccc3o2)C1,-5.277,-19.23
CCNS(=O)(=O)c1cnccc1N1CCN(CCO)CC1,-36.66,26.98
COc1ccc(NC(=O)c2cnc(N(C)C3CCCCC3)nc2N)cc1,-3.213,26.95
COc1ccc(CN(C)C2CSCCSC2)c2cccnc12,9.817,24.18
CS(=O)(=O)N1CCC(C(=O)N2CCN(Cc3cccc(Cl)c3)CC2)CC1,-3.262,16.83
N#Cc1cn(CCCN2CCc3ccccc3C2)c(=O)[nH]c1=O,-48.29,-2.602
CC(C)COCCNC1CCN(c2ccccn2)CC1,-3.488,16.23
CCC(=O)N1CCC2(C=C(C(=O)N(C)C)c3ccccc32)CC1,21.81,92.12
Cc1nn(CC(=O)N(C)Cc2nncn2C(C)C)c(=O)c2ccccc12,6.586,-4.005
CCn1nc2c(cc1=O)CN(CC(=O)Nc1nc(C)c(C)s1)CC2,-0.3337,-9.259
Cc1ocnc1C(=O)N(Cc1cccnc1)C[C@@H]1CCC(=O)N1,-0.5708,12.47
O=C(O)C1CN(c2cccc(F)c2)CCO1 (stereo unspecified),-1.58,-12.57
CSc1ncccc1C(=O)NCC(c1ccco1)N(C)C (stereo unspecified),8.746,19.18
[H][C@]12CC[C@]([H])(CN(C(=O)c3ccncc3)C1)N(C(=O)CN(C)CCOC)C2,-2.423,18.95
COCC(C)NC(=O)CN1CCCC1 (stereo unspecified),-10.81,-20.24
CC(C)CC1SCC(=O)Nc2c1cnn2-c1ccccc1F (stereo unspecified),-10.54,2.944
Cc1c(-c2cc(C(F)(F)F)nc(N3CCC(N)CC3)n2)cnn1C,84.58,81.41
COc1cc(CNc2ccc(Cl)cc2)ccc1OCC(=O)O,-12.87,-13.47
COc1ccc(-c2nnc(CNCCn3cc(C)cn3)o2)cc1,31.89,3.662
COc1ccccc1CNc1ncnc2c1NC(=O)CN2,7.594,10.74
CCC(C)(O)CNc1ccc(S(=O)(=O)C(F)F)cc1 (stereo unspecified),-2.862,-73.68
CC(C)c1ccc(O)c(C(=O)NC2CCN(c3ncccn3)CC2)c1,0.3386,17.59
CN(Cc1nnc2n1CCC2)C(=O)c1ccc2c(c1)OCCCO2,22.86,-3.527
c1ccc2c(c1)CC(CNCc1ccncc1)(N1CCCCC1)C2,16.05,24.55
O=C(c1ccoc1)N1CCC2(C1)CN(c1ncc(F)cn1)C2,-4.113,-1.738
CCN1CCC2(CN(C(C)=O)CC23CCN(C(=O)N(C)C)CC3)C1=O (stereo unspecified),-30.48,4.073
O=C(c1ccc(Cl)cc1)N1CCC(N2CCCCC2=O)CC1,-2.303,21.68
Cc1cnn(CC2CCCN2C(=O)c2cccc3[nH]ncc23)c1 (stereo unspecified),-33.6,17.47
O=C(O)C(F)(F)F.[H][C@]12CCN(c3cnccn3)CC[C@]1([H])N(CC(C)C)CCO2,8.491,20.15
Cc1ccccc1N1CCN(C(=O)CC(C)C)CC1,-36.78,-35.74
CCc1cccc(NC(=O)N2CCn3cnc(COC)c3C2)c1,-3.32,4.795
Nc1ncc(-c2cccc(NC(=O)[C@@H]3CCCCN3)c2)cn1,-1.572,25.78 & 20.47

Some entries from above, unchanged:

{"smiles": "Cn1nc(CNC(=O)CN2C(=O)CCC2=O)cc1C1CC1", "A": 22.01, "B": "22.8 & 9.778"}
{"smiles": "O=C(c1ccoc1)N1CCC2(C1)CN(c1ncc(F)cn1)C2", "A": -4.113, "B": -1.738}
{"smiles": "CN(Cc1cnn(C)c1)C(=O)NCc1ccc2c(c1)OCCO2", "A": -14.03, "B": 20.15}
{"smiles": "Cc1cc(NCc2ccco2)nc2[nH]nc(N)c12", "A": -13.19, "B": 9.62}
{"smiles": "CCN1CCC2(CN(C(C)=O)CC23CCN(C(=O)N(C)C)CC3)C1=O", "stereo": "stereo unspecified", "A": -30.48, "B": 4.073}
{"smiles": "CCNS(=O)(=O)c1cnccc1N1CCN(CCO)CC1", "A": -36.66, "B": 26.98}

The values are deposited in ChEMBL (CHEMBL3988442, “University of Dundee, Small-Polar-MMV Screening Library” (2021)).